Measurements taken from PubChem BioAssay AID2685 (National Center for Advancing Translational Sciences (NCATS), 2010).
Screen size: about 320,000 compounds; about 2,100 (0.66%) were called active. The shares of active, inactive and inconclusive entries below differ from those in the screen. Calls come from the whole dose curve; as a rule, active = well fitted inhibition curve with a large enough effect in the signal ratio, with a control signal flat (not every such curve was filed as active); inconclusive = small, poorly fitted or top-dose-only effect, or effect the other way, or a change in a side signal; inactive = flat fitted curve, though single readings scatter; the % refers to the signal ratio. A potency beside an inconclusive call is a rough fit, not a confirmed value.

Experiment: qHTS Assay for Lipid Storage Modulators in Drosophila S3 Cells
Conditions: BODIPY lipid droplet fluorescence, 18-24 h, cells fed with added oleic acid; lipid storage change, negative = inhibition: at 46.1 µM (top of the series) unless noted
How it was run: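 Drosophila S3 cells got compounds at several concentrations plus oleic acid (400 uM solution). Laser-scanning cytometry with 488 nm excitation read lipid droplets at 500-530 nm and cells at 575-640 nm. Percent activity was relative to 20 uM Triacsin C.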
% is set by controls: 0 for no effect and ±100 for the full control effect; potency is the fitted concentration of half-maximal effect.

Which lipid storage change, negative = inhibition does the source give for `Cc1ccc(OCC(=O)N2CCN(S(=O)(=O)c3ccc4c(c3)OCCO4)CC2)c(C)c1` here?
The lipid storage change, negative = inhibition was inconclusive: 35.6%.

With `COC(=O)c1ccc(N=NNc2cccc(Br)c2)cc1` as the compound, how does the lipid storage change, negative = inhibition read?
Its lipid storage change, negative = inhibition is inconclusive: 16%.

For `CN(CCc1ccccn1)C(=S)Nc1ccc(Cl)c(Cl)c1`, which Potency is on record?
Its Potency is inconclusive: 11.6 µM [falling, partial curve].

Which Potency does the source give for `CCS(=O)(=O)NC(C)C(c1cccs1)N1CCN(c2ccc(F)cc2)CC1` (configuration not stated) here?
Its Potency is inconclusive: 8.2 µM [activator, single point].

With `CCN(CC(=O)Nc1ccc(N2CCOCC2)cc1)CC(=O)NC(C)(C)C` as the compound, how does the lipid storage change, negative = inhibition read?
The lipid storage change, negative = inhibition was inconclusive: -27.4%.

For `CCn1cc2nc(SCC(=O)Nc3ccc(OC)c(OC)c3)n(Cc3ccc(OC)cc3)c(=O)c2n1`, which lipid storage change, negative = inhibition is on record?
Its lipid storage change, negative = inhibition is inconclusive: 63.3%.

With `N/C(=N\NC(=O)c1ccccc1)c1cc2ccccc2oc1=O` as the compound, how does the lipid storage change, negative = inhibition read?
The lipid storage change, negative = inhibition was inconclusive: 9.55%.

Which lipid storage change, negative = inhibition does the source give for `Nn1c(SCC(=O)NCC2CCCO2)nnc1-c1cc(Cl)ccc1Cl` (configuration not stated) here?
Its lipid storage change, negative = inhibition is “inconclusive”.

With `CCN(CCCNC(=O)C1CCN(S(=O)(=O)c2cnc[nH]2)CC1)c1cccc(C)c1` as the compound, how does the Potency read?
Its Potency is inconclusive: 0.82 µM [falling, full curve].

Which Potency does the source give for `COc1cccc(C(=O)Nc2nnc(S(=O)(=O)N3CCOCC3)s2)c1` here?
Its Potency is inconclusive: 11.6 µM [falling, single point].

For `Cc1sc(NC(=O)c2ccco2)c(C(c2ccc(F)cc2)N2CCN(C)CC2)c1C` (configuration not stated), which lipid storage change, negative = inhibition is on record?
Its lipid storage change, negative = inhibition is inconclusive: 0.878%.

Which lipid storage change, negative = inhibition does the source give for `C=CCNc1cnn(-c2ccc(C)cc2)c(=O)c1Sc1ccc(C)cc1` here?
The lipid storage change, negative = inhibition was inconclusive: 10.6%.

For `Cc1ccccc1N(Cc1nnc2n1CCCCC2)C(=O)Nc1ccccc1`, which Potency is on record?
The Potency was inconclusive: 6.51 µM [activator, partial curve, poor fit].

For `CCOC(=O)N1CCC(NS(=O)(=O)c2ccc3c(c2)C(C)(C)C(=O)N3C)CC1`, which lipid storage change, negative = inhibition is on record?
Its lipid storage change, negative = inhibition is inconclusive: 10.5%.

With `CC(=O)NC1CC(C)(C)N(OC(C)=O)C(C)(C)C1` as the compound, how does the Potency read?
Its Potency is inconclusive: 1.84 µM [activator, full curve, poor fit].

For `CC(=O)CCc1ccc2oc(C(=O)O)c(C)c2c1`, which Potency is on record?
Its Potency is inconclusive: 0.0052 µM [falling, full curve, poor fit].

For `Cc1cc(NC(=O)CSc2nc(=O)cc(N)n2-c2ccc(F)cc2)no1`, which lipid storage change, negative = inhibition is on record?
Its lipid storage change, negative = inhibition is inconclusive: 2.83%.

Which lipid storage change, negative = inhibition does the source give for `O=S(=O)(c1ccc(F)cc1)N1CCN(CC2CC3C=CC2C3)CC1` (configuration not stated) here?
The lipid storage change, negative = inhibition was inconclusive: -100%.

Which Potency does the source give for `Cc1cc(=O)[nH]c(-n2nc(C)cc2C)n1` here?
Its Potency is inconclusive: 29.1 µM [activator, single point].

With `COc1ccc(CNC(=O)C2CCCN(C(=O)Nc3ccccc3OC)C2)cc1` (configuration not stated) as the compound, how does the lipid storage change, negative = inhibition read?
The lipid storage change, negative = inhibition was inconclusive: -0.269%.

For `Cc1ccc(NC(=O)NCCCN2CCCC2=O)c(C)c1`, which Potency is on record?
Its Potency is inconclusive: 18.4 µM [activator, single point].

Which Potency does the source give for `COc1ccc(NC(=O)CCCCCN2C(=O)c3ccccc3C2=O)c(OC)c1` here?
The Potency was inconclusive: 0.116 µM [activator, full curve, poor fit].

For `CSc1nc2c(c(=O)[nH]1)C(c1ccc(Br)cc1)CC(=O)N2` (configuration not stated), which lipid storage change, negative = inhibition is on record?
The lipid storage change, negative = inhibition was inconclusive: 23.3%.

Which lipid storage change, negative = inhibition does the source give for `S=C(NCCc1ccccc1)N1CCN(Cc2ccccc2)CC1` here?
Its lipid storage change, negative = inhibition is inconclusive: 14.7%.

With `Cc1ccc(CS(=O)Cc2ccc(C(=O)N3CCN(c4ccccn4)CC3)o2)cc1` (configuration not stated) as the compound, how does the Potency read?
Its Potency is active: 7.31 µM.

With `O=C(COc1ccc2cc(Br)ccc2c1)N1CCCC1` as the compound, how does the Potency read?
Its Potency is inconclusive: 18.4 µM [falling, single point].

Which lipid storage change, negative = inhibition does the source give for `CC(=O)N1CCC(N(CCN2CCOCC2)C(=S)Nc2cc(C)cc(C)c2)CC1` here?
Its lipid storage change, negative = inhibition is inconclusive: -0.0277%.

With `S=C(NCCN(C1CCCCC1)C1CCCC1)Nc1cccc(Cl)c1` as the compound, how does the Potency read?
The Potency was inconclusive: 29.1 µM [cytotoxic, single point].

For `COc1ccc(N2C(=O)CC(N3CCN(c4ccc(S(=O)(=O)N5CCCC5)cc4)CC3)C2=O)cc1` (configuration not stated), which lipid storage change, negative = inhibition is on record?
Its lipid storage change, negative = inhibition is inconclusive: -44.3%.

With `COc1cc2c(cc1[N+](=O)[O-])n(C(C)C)c(=O)n2C(C)C` as the compound, how does the Potency read?
The Potency was inconclusive: 29.1 µM [falling, partial curve, poor fit].

With `COc1ccc(C(=O)COC(=O)C(CCSC)NC(=O)COc2ccccc2)cc1` (configuration not stated) as the compound, how does the “lipid storage change, negative = inhibition” value read?
The value was inactive: 7.97%.

With `Cc1nn(-c2ccccc2)c(C)c1CN(C)C(=O)c1ccc(S(=O)(=O)NCc2ccco2)cc1` as the compound, how does the lipid storage change, negative = inhibition read?
The lipid storage change, negative = inhibition was inconclusive: -12.7%.

Which “outcome” value does the source give for `O=S(=O)(c1cccs1)N1CCC(Cc2ccccc2)CC1` here?
The value was “inactive [at 46.1 µM]”.

With `O=C(OCc1ccccc1)/C(=C/c1ccccc1Cl)NC(=O)c1ccco1` as the compound, how does the lipid storage change, negative = inhibition read?
The lipid storage change, negative = inhibition was inconclusive: 10.1%.

With `Cc1[nH]nc2nc(SCC(=O)NCC3CCCO3)n(-c3ccc(Br)cc3)c(=N)c12` (configuration not stated) as the compound, how does the lipid storage change, negative = inhibition read?
Its lipid storage change, negative = inhibition is inconclusive: -29.9%.

Which lipid storage change, negative = inhibition does the source give for `COc1ccccc1/C(C)=N/NC(=S)NCc1ccccc1` here?
Its lipid storage change, negative = inhibition is inconclusive: 50.3%.

With `CCCCNC(=S)N1CCN(Cc2ccc3c(c2)OCO3)CC1` as the compound, how does the Potency read?
The Potency was inconclusive: 2.06 µM [activator, partial curve, poor fit].
